Test results published in the supplement of paper PMC10849652.
This is one part of the list.

Amino acid sequences for entries named in this document (tags omitted). A change or cut given only in a name is not applied to a line headed by its entry.
UniProt O43639, whole entry, looked up: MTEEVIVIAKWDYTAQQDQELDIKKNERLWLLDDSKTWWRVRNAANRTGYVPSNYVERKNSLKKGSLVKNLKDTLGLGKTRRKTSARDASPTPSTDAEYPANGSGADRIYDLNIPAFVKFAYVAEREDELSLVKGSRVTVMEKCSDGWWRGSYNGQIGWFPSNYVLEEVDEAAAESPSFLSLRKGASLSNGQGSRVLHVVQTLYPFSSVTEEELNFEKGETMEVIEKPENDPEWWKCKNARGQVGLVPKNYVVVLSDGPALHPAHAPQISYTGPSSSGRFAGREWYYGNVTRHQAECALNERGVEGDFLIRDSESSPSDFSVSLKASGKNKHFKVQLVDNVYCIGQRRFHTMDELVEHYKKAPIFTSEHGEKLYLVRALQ
UniProt Q96NT1: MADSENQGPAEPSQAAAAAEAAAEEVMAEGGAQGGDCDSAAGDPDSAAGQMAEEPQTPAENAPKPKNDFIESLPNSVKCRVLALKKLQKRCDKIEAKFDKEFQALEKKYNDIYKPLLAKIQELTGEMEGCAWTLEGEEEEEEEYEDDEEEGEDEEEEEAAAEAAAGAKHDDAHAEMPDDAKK
UniProt Q5VZE5: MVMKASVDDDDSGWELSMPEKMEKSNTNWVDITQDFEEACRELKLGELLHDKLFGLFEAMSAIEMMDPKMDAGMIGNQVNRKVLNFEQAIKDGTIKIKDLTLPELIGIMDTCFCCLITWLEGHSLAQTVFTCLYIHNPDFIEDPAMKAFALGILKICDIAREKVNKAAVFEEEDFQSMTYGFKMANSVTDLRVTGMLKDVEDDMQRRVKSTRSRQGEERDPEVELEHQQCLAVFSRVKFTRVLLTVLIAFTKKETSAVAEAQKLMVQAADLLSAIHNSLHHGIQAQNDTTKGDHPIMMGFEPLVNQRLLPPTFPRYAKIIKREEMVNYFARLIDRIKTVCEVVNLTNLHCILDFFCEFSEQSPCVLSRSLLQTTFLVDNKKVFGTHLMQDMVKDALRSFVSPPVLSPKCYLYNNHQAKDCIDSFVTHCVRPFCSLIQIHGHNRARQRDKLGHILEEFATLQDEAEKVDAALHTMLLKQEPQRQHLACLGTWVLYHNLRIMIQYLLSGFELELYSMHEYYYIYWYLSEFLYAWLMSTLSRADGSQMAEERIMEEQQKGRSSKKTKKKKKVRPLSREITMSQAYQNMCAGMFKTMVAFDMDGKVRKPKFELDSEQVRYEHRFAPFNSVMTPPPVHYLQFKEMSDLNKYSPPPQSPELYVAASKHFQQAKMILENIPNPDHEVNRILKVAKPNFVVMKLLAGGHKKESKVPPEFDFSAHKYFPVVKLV
UniProt Q96I59: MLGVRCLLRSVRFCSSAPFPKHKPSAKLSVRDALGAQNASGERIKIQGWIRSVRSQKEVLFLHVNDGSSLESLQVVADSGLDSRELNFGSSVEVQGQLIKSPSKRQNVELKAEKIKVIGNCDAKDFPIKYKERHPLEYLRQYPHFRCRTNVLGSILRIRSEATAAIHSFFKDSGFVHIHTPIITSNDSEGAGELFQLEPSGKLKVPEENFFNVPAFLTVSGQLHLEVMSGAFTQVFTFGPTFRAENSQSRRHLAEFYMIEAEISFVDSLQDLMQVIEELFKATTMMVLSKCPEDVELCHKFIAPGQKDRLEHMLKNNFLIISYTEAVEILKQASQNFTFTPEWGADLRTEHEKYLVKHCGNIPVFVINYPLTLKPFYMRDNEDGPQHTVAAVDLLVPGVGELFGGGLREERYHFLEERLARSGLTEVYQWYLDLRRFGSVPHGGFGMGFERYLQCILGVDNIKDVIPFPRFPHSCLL
UniProt Q68D85: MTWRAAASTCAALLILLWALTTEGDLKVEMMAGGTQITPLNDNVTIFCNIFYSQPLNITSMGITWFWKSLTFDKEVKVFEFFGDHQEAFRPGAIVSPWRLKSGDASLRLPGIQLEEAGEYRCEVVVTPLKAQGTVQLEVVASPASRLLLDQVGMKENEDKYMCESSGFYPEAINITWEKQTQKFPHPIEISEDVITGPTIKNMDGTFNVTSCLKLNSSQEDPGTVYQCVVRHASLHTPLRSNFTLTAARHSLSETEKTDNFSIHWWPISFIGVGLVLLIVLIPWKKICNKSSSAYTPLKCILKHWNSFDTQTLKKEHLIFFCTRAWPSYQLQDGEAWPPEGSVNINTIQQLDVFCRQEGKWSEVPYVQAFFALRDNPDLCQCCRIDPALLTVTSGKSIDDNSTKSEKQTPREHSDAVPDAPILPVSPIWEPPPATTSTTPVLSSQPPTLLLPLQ
UniProt O43676, whole entry, looked up: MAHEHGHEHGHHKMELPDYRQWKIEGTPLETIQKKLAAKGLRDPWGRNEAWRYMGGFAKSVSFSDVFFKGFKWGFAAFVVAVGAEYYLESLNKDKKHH
UniProt A2RRP1: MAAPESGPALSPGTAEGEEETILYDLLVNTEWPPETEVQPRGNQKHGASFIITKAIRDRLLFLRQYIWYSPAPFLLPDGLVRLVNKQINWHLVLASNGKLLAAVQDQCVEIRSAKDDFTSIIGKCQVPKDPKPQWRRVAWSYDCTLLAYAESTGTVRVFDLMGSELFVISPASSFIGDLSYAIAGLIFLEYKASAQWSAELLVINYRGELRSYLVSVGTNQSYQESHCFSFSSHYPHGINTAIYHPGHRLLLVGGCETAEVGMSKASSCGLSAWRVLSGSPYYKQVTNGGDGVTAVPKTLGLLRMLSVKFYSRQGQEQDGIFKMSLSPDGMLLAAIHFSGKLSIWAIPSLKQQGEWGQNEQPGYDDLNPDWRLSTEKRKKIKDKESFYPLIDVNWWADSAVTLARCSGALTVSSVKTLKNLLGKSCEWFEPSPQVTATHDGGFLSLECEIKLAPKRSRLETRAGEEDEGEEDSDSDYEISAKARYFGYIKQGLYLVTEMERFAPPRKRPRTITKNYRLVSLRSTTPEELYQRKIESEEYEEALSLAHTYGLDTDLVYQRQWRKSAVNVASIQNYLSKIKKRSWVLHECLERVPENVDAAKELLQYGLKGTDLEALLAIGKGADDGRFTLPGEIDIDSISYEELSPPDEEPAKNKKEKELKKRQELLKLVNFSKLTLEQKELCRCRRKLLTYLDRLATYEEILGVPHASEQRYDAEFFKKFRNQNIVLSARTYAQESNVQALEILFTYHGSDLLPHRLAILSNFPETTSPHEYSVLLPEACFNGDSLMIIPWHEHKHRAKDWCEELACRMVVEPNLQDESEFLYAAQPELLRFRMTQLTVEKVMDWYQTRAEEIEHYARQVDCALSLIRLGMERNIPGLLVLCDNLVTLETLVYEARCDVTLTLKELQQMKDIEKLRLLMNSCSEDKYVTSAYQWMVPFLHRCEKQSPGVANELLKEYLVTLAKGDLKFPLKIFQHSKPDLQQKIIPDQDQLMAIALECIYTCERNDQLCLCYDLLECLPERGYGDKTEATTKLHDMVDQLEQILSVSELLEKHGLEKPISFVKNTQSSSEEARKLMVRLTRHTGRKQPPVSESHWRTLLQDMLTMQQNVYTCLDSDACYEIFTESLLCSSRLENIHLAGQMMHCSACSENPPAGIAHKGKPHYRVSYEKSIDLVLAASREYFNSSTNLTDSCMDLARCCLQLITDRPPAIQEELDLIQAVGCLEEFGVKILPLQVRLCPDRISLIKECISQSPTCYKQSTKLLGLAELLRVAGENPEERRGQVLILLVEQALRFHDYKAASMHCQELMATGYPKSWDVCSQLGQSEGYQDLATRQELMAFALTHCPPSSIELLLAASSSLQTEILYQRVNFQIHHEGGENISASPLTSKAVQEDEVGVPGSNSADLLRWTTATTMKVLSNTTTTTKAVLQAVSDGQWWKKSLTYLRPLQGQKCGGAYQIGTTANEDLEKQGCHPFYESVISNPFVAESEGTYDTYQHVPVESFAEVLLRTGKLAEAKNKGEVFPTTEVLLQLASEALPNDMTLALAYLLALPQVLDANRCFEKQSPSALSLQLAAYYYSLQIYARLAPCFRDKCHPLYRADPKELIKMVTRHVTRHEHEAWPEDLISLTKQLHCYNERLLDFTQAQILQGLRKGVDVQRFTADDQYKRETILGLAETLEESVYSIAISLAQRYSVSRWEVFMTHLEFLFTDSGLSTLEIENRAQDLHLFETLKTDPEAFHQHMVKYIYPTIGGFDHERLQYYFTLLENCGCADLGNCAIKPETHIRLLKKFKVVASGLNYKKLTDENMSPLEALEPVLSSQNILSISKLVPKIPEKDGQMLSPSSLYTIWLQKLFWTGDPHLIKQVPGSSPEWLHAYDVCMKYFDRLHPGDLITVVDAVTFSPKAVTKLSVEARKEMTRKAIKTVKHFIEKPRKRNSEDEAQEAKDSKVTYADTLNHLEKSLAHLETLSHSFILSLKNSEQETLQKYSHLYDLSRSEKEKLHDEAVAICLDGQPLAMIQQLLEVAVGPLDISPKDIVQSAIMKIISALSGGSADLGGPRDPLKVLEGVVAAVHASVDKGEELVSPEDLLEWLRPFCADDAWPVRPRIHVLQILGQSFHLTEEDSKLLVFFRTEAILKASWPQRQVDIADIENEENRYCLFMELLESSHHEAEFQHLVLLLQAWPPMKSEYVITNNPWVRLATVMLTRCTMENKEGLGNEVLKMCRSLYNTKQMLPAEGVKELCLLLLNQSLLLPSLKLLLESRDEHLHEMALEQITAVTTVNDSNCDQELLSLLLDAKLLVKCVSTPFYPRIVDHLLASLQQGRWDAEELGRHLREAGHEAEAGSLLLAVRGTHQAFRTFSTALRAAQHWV
UniProt Q96PU5: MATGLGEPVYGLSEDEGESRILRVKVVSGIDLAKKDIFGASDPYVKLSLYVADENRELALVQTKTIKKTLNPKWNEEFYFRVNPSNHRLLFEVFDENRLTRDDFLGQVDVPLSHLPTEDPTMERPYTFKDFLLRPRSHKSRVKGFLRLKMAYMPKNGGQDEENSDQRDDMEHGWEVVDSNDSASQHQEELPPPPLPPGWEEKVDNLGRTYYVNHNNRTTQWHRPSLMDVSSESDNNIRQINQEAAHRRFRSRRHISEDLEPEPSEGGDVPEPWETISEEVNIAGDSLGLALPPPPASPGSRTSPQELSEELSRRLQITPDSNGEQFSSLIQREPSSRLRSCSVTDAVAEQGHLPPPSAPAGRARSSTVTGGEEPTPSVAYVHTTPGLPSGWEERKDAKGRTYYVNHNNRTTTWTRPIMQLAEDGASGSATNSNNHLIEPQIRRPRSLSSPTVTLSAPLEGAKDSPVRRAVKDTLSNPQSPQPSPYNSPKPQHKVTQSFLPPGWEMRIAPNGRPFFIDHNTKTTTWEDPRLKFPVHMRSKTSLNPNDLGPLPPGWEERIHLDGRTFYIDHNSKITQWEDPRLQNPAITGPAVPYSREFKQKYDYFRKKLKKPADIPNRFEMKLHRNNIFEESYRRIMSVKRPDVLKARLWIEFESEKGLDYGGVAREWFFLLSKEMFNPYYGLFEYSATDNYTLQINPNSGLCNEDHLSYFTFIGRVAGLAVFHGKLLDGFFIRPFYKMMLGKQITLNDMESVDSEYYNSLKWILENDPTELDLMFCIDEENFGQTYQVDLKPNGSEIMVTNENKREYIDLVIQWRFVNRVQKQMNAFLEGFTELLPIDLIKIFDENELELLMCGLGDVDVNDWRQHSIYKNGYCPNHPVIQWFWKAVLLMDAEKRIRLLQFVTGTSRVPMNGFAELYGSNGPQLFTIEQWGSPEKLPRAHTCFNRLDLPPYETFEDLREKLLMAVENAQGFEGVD
UniProt O95169, whole entry, looked up: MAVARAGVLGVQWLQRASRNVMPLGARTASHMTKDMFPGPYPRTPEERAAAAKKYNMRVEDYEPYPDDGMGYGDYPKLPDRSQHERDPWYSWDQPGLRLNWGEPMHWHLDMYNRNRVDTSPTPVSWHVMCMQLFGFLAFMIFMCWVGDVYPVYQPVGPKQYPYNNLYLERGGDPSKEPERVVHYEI
UniProt Q96RE7: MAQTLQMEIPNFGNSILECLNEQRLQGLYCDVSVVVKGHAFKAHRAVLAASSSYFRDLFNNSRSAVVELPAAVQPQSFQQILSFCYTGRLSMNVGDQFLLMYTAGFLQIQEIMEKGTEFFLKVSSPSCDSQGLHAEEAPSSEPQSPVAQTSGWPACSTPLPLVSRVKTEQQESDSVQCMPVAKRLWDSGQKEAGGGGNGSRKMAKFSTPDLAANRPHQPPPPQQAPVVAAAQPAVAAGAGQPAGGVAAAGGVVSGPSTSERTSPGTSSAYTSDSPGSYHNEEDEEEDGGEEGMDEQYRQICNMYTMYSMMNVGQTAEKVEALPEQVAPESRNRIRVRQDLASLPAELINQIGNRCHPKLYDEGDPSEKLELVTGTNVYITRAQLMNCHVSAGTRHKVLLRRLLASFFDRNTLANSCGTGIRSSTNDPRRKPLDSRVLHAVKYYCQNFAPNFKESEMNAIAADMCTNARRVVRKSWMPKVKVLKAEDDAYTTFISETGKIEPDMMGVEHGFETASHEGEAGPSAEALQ
UniProt O95298, whole entry, looked up: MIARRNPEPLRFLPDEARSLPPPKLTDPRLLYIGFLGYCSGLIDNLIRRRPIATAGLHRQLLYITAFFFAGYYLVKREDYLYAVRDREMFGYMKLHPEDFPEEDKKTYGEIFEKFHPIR

How the values were obtained:
Test in all cases: log2 fold change, soluble protein after heating vs DMSO (PISA); higher = thermal stabilisation; K562 cells, 10 uM, 30 min; active = over 0.2 and 3.5 SD of the protein, either way, in both replicates (recomputed)
bafetinib = compound: Cc1ccc(NC(=O)c2ccc(CN3CC[C@H](N(C)C)C3)c(C(F)(F)F)c2)cc1Nc1nccc(-c2cncnc2)n1 [bafetinib]
In short: (§1)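 K562 cells (2×10^6 cells/mL) were treated with 10 μM compound for 30 min, and aliquots were heated for 3 min over 48°C-58°C. Pooled aliquots were extracted in PBS with 0.5% NP-40 at 4°C, and the supernatant after 21,000xg for 90 min was measured by TMTpro 16plex LC-MS/MS with channel sums equalised. Reported thermal stability, relative to control samples and from duplicates, is a log2 fold change.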

[1] = compound: Cc1cccc(CC(=O)N2CCc3c2ccc(-c2cn(C)c4ncnc(N)c24)c3F)n1
In short: as §1

nilotinib = compound: Cc1cn(-c2cc(NC(=O)c3ccc(C)c(Nc4nccc(-c5cccnc5)n4)c3)cc(C(F)(F)F)c2)cn1 [nilotinib]
In short: as §1

[2] = compound: Cc1nc(Nc2n[nH]c3c2CN(C(=O)N[C@H](CN(C)C)c2ccccc2)C3(C)C)c2sccc2n1
In short: as §1

dasatinib = compound: Cc1nc(Nc2ncc(C(=O)Nc3c(C)cccc3Cl)s2)cc(N2CCN(CCO)CC2)n1 [dasatinib]
In short: as §1

[3] = compound: Cc1ncc(-c2ccnc(Nc3ccc(S(C)(=O)=O)cc3)n2)n1C(C)C
In short: as §1

[4] = compound: Cn1cc(-c2ccc3c(c2)CCN3C(=O)Cc2cccc(C(F)(F)F)c2)c2c(N)ncnc21
In short: as §1

[5] = compound: Cn1cc(-c2ccc3nnc(C(F)(F)c4ccc5ncccc5c4)n3n2)cn1
In short: as §1

tipifarnib = compound: Cn1cncc1[C@@](N)(c1ccc(Cl)cc1)c1ccc2c(c1)c(-c1cccc(Cl)c1)cc(=O)n2C [tipifarnib]
In short: as §1

mubritinib = compound: FC(F)(F)c1ccc(/C=C/c2nc(COc3ccc(CCCCn4ccnn4)cc3)co2)cc1 [mubritinib]
In short: as §1

Measured: log2 fold change

NACA (UniProt E9PAV3)
inactive: bafetinib -0.05 | [1] -0.022 | nilotinib -0.011 | [2] 0.017 | dasatinib 0.045 | [3] -0.016 | [4] -0.054 | [5] 0.066 | tipifarnib -0.009 | mubritinib 0.014

NA, A0A2R8Y3M9
inactive: bafetinib -0.605 | [1] 0.19 | nilotinib 0.035 | [2] -0.091 | dasatinib -0.013 | [3] 0.31 | [4] 0.503 | [5] -0.117 | tipifarnib 0.08

NCK2 (UniProt O43639)
inactive: bafetinib 0.023 | [1] 0.114 | nilotinib -0.032 | [2] -0.271 | dasatinib -0.284 | [3] 0 | [4] 0.001 | [5] -0.216 | tipifarnib 0.194

NCBP2 (UniProt P52298)
inactive: bafetinib -0.066 | [1] 0.056 | nilotinib -0.021 | [2] -0.017 | dasatinib -0.036 | [3] 0.075 | [4] 0.037 | [5] 0.026 | tipifarnib 0.031 | mubritinib -0.006

NEDD4 isoform 4 (UniProt P46934)
inactive: bafetinib -0.067 | [1] 0.054 | nilotinib -0.047 | [2] -0.083 | dasatinib -0.068 | [3] 0.052 | [4] -0.016 | [5] 0.027 | tipifarnib -0.024 | mubritinib 0.008

NAP1L5 (UniProt Q96NT1)
inactive: bafetinib 0.019 | [1] -0.048 | nilotinib 0.066 | [2] 0.02 | dasatinib 0.069 | [3] -0.023 | [4] -0.097 | [5] 0.094 | tipifarnib -0.021 | mubritinib 0.069

NAA35 (UniProt Q5VZE5)
inactive: bafetinib -0.035 | [1] 0.065 | nilotinib -0.013 | [2] 0.001 | dasatinib -0.106 | [3] -0.004 | [4] 0.042 | [5] -0.001 | tipifarnib -0.01 | mubritinib 0.004

NDUFS4 (UniProt O43181)
inactive: bafetinib -0.083 | [1] 0.017 | nilotinib 0.039 | [2] 0.015 | dasatinib 0.087 | [3] -0.047 | [4] 0.025 | [5] -0.049 | tipifarnib 0.202 | mubritinib 0.058

NARS2 (UniProt Q96I59)
inactive: bafetinib -0.108 | [1] 0.034 | nilotinib -0.063 | [2] 0.069 | dasatinib -0.05 | [3] 0.005 | [4] 0.084 | [5] 0.047 | tipifarnib -0.004 | mubritinib -0.009

NAA38 isoform 2 (UniProt Q9BRA0)
inactive: bafetinib 0 | [1] -0.019 | nilotinib -0.128 | [2] 0.052 | dasatinib -0.051 | [3] -0.066 | [4] 0.028 | [5] -0.047 | tipifarnib -0.039 | mubritinib -0.03

NCR3LG1 (UniProt Q68D85)
inactive: bafetinib -0.009 | [1] -0.09 | nilotinib -0.002 | [2] -0.078 | dasatinib -0.09 | [3] -0.055 | [4] -0.038 | [5] -0.024 | tipifarnib 0.019 | mubritinib -0.007

NDUFB3 (UniProt O43676)
inactive: bafetinib -0.075 | [1] -0.078 | nilotinib 0.003 | [2] 0.023 | dasatinib 0.027 | [3] -0.029 | [4] 0.012 | [5] 0.043 | tipifarnib 0.057 | mubritinib 0.039

NECAP2 (UniProt Q9NVZ3)
inactive: bafetinib 0.009 | [1] 0.052 | nilotinib 0.045 | [2] -0.07 | dasatinib -0.081 | [3] -0.023 | [4] 0.038 | [5] -0.007 | tipifarnib -0.112 | mubritinib 0.083

NDUFS7 (UniProt O75251)
inactive: bafetinib -0.047 | [1] 0.06 | nilotinib -0.03 | [2] 0.021 | dasatinib 0.01 | [3] -0.007 | [4] 0.034 | [5] 0.036 | tipifarnib -0.035 | mubritinib 0.095

NDE1 isoform 1 (UniProt Q9NXR1)
inactive: bafetinib -0.008 | [1] -0.031 | nilotinib 0.024 | [2] 0.001 | dasatinib 0.069 | [3] -0.016 | [4] 0.012 | [5] -0.002 | tipifarnib 0.053 | mubritinib 0.083

NECTIN2 (UniProt Q92692)
inactive: bafetinib 0.03 | [1] -0.023 | nilotinib -0.023 | [2] 0.022 | dasatinib -0.017 | [3] 0.055 | [4] 0.096 | [5] 0.009 | tipifarnib 0.008 | mubritinib 0.023

NDUFA6 (UniProt P56556)
inactive: bafetinib 0.128 | [1] 0.301 | nilotinib -0.151 | [2] 0.021 | dasatinib -0.088 | [3] 0.027 | [4] 0.089 | [5] 0.081 | tipifarnib -0.173 | mubritinib 0.184

MYO9B (UniProt Q13459)
inactive: bafetinib 0.127 | [1] -0.066 | nilotinib -0.069 | [2] 0.004 | dasatinib -0.033 | [3] -0.007 | [4] -0.17 | [5] -0.048 | tipifarnib -0.068 | mubritinib -0.031

NCL (UniProt P19338)
inactive: bafetinib 0.272 | [1] 0 | nilotinib -0.033 | [2] 0.026 | dasatinib 0.209 | [3] 0.051 | [4] -0.445 | [5] -0.237 | tipifarnib 0.225 | mubritinib -0.325

NAA15, A0A0B4J1W3
inactive: bafetinib -0.04 | [1] 0.042 | nilotinib -0.083 | [2] 0.079 | dasatinib 0 | [3] -0.074 | [4] -0.001 | [5] -0.043 | tipifarnib 0.007 | mubritinib -0.133

NBAS (UniProt A2RRP1)
inactive: bafetinib 0.247 | [1] 0.04 | nilotinib -0.184 | [2] -0.166 | dasatinib 0.004 | [3] 0.089 | [4] -0.131 | [5] 0.026 | tipifarnib 0.032 | mubritinib -0.059

NAA20 (UniProt P61599)
inactive: bafetinib -0.012 | [1] -0.006 | nilotinib 0.022 | [2] 0.009 | dasatinib -0.002 | [3] -0.015 | [4] 0.182 | [5] 0.046 | tipifarnib 0.016 | mubritinib -0.056

NEDD4L (UniProt Q96PU5)
inactive: bafetinib -0.037 | [1] -0.062 | nilotinib 0.015 | [2] -0.134 | dasatinib -0.103 | [3] 0.031 | [4] -0.097 | [5] -0.078 | tipifarnib -0.022 | mubritinib 0.01

Reprinted from above (two entries):
NAA20 (UniProt P61599)
inactive: bafetinib -0.012 | [1] -0.006 | nilotinib 0.022 | [2] 0.009 | dasatinib -0.002 | [3] -0.015 | [4] 0.182 | [5] 0.046 | tipifarnib 0.016 | mubritinib -0.056

NEDD4L (UniProt Q96PU5)
inactive: bafetinib -0.037 | [1] -0.062 | nilotinib 0.015 | [2] -0.134 | dasatinib -0.103 | [3] 0.031 | [4] -0.097 | [5] -0.078 | tipifarnib -0.022 | mubritinib 0.01

The results go on:

NCOA7 (UniProt Q8NI08)
inactive: bafetinib -0.017 | [1] 0.154 | nilotinib -0.044 | [2] -0.046 | dasatinib -0.144 | [3] -0.039 | [4] 0.085 | [5] 0.004 | tipifarnib -0.125 | mubritinib 0.054

NDUFB8 (UniProt O95169)
inactive: bafetinib -0.029 | [1] -0.002 | nilotinib 0.015 | [2] 0.027 | dasatinib 0.056 | [3] -0.04 | [4] -0.08 | [5] 0.154 | tipifarnib 0.071 | mubritinib 0.027

NACC1 (UniProt Q96RE7)
inactive: bafetinib -0.03 | [1] -0.039 | nilotinib -0.165 | [2] -0.109 | dasatinib -0.198 | [3] -0.12 | [4] -0.041 | [5] 0.034 | tipifarnib -0.084 | mubritinib -0.03

NDUFC2 (UniProt O95298)
inactive: bafetinib -0.031 | [1] -0.071 | nilotinib 0.035 | [2] -0.009 | dasatinib 0.068 | [3] -0.015 | [4] 0.107 | [5] 0.114 | tipifarnib -0.052 | mubritinib 0.021

NDUFV1 (UniProt P49821)
inactive: bafetinib -0.054 | [1] 0.052 | nilotinib -0.028 | [2] 0.018 | dasatinib -0.087 | [3] -0.038 | [4] 0.028 | [5] 0.043 | tipifarnib 0.045 | mubritinib 0.021

NDUFA13 (UniProt Q9P0J0)
inactive: bafetinib -0.071 | [1] 0.009 | nilotinib 0.014 | [2] -0.011 | dasatinib -0.012 | [3] 0.01 | [4] 0.081 | [5] 0.045 | tipifarnib -0.045 | mubritinib 0.009

NA, A0A096LPI6
inactive: bafetinib -0.076 | [1] -0.043 | nilotinib 0 | [2] -0.007 | dasatinib -0.005 | [3] -0.04 | [4] -0.003 | [5] -0.028 | tipifarnib -0.038 | mubritinib 0.024
